From paper PMC12436592 (Nature Communications, 2025) come the findings set out here.

The chains behind the UniProt entries cited, without tags or fusion partners.
UniProt Q9Z1M0, whole entry: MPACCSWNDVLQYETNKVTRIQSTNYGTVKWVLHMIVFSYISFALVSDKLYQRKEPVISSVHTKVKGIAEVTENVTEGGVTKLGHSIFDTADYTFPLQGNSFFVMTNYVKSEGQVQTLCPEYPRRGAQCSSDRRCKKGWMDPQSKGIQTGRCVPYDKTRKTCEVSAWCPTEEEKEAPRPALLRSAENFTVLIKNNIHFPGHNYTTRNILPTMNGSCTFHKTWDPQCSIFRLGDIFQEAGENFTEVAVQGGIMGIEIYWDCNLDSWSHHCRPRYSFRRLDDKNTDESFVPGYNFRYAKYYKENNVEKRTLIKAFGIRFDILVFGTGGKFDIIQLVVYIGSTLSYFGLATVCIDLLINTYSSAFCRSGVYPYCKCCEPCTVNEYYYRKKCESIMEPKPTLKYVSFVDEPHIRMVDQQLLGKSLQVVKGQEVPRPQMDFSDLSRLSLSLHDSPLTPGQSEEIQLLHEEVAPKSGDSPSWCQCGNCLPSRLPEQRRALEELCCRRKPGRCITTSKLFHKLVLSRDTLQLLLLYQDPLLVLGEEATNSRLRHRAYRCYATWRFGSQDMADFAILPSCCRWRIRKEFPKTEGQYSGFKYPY
UniProt Q64663, whole entry: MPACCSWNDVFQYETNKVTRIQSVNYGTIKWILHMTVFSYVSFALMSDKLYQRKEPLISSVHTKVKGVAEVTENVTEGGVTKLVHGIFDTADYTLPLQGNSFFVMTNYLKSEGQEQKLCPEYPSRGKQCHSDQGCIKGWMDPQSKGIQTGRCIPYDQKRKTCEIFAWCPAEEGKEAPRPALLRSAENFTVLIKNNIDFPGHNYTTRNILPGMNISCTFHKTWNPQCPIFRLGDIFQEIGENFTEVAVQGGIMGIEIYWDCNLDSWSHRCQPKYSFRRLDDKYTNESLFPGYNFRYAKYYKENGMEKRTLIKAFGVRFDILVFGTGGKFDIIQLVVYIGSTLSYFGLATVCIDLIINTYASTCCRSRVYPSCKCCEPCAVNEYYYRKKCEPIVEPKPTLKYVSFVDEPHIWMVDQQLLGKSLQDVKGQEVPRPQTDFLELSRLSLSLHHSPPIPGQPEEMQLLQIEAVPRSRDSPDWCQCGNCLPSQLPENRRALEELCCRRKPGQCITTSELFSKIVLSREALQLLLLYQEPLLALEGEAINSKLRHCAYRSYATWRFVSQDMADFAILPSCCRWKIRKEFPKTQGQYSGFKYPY

Experiment [1] addresses mP2X7R (Mus musculus, UniProt Q9Z1M0). The experiment is described as follows: TEVC dose response of ATP at mP2X7R in Xenopus oocytes. The class given is cell-based. The note with it: [ATP] 12.3 μM. As to the method:
(§1) Defolliculated Xenopus laevis oocytes were purchased from Ecocyte Bioscience and kept in Modified Barth’s Solution (88 mM NaCl, 1 mM KCl, 0.82 mM MgSO4, 0.33 mM Ca(NO3)2·4H2O, 0.41 mM CaCl2·2H2O, 2.4 mM NaHCO3, 5 mM HEPES) supplemented with amikacin 250 mg/L and gentamycin 150 mg/L. Oocytes were then injected with 50 nL of either full-length wild-type hP2X7R (40 ng/μL), mP2X7R (20 ng/μL), or rP2X7R (20 ng/μL) mRNA made from linearized pcDNA 3.1x according to the protocol provided in the mMessage mMachine kit (Invitrogen). Injected oocytes were allowed to express for ~20 h before recording was performed.
(§2) Data acquisition was performed using an Oocyte Clamp OC-725C amplifier and pClamp 8.2 software. Buffers were applied using a gravity-fed RSC-200 Rapid Solution Changer, flowing at ~5 mL/min. All experiments use Sutter filamented glass 10 cm in length with an inner diameter of 0.69 mm and an outer diameter of 1.2 mm to impale oocytes and clamp the holding voltage at −60 mV. Experiments were recorded in buffer containing 100 mM NaCl, 2.5 mM KCl, 0.1 mM EDTA, 0.1 mM flufenamic acid, and 5 mM HEPES at pH 7.4. All oocytes expressing P2X7R were facilitated with multiple applications of 100 μM ATP before any data was recorded. […]

The target in experiment [2] is rP2X7R (Rattus norvegicus, UniProt Q64663). In words: TEVC dose response of ATP at rP2X7R in Xenopus oocytes. The experiment is classed as cell-based. The note with it: [ATP] 11 μM. Here is the method:
as §1, §2

For part of its entries the source gives two or more results. The list is limited to them. There may be further records. The records of an entry do not match, cause unknown; some may be repeats, others may stem from another dose, organism or construct than stated.

For the molecule `Nc1ncnc2c1ncn2[C@@H]1O[C@H](COP(=O)(O)OP(=O)(O)OP(=O)(O)O)[C@@H](O)[C@H]1O` [ATP], the “Normalized response, mP2X7R” value in experiment [1] is reported as 0.03, 0.02, 0.05. In addition, the “Normalized response, rP2X7R” value in experiment [2] is reported as 0.05, 0.1128, 0.1582.
